Among the data in PubChem BioAssay AID493014 (National Center for Advancing Translational Sciences (NCATS), 2011) are AC50 values, retold here.

The other results are listed elsewhere or left out. These are further read-outs of the screen, such as a control signal, another cell line or another target. No call is given for them. The list favours compounds with an active or inconclusive main result. Potencies come from curve fits of mixed quality, noted in brackets.

The experiment can be described thus: qHTS Assay to Find Inhibitors of Chronic Active B-Cell Receptor Signaling. Particulars: ABC-DLBCL IkBa-CBG/CBR reporter, luminescence ratio (green luciferase fused to IkBa over red control in TMD8 lymphoma cells), 4 h. The gist of the method: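 TMD8 human ABC-DLBCL cells with doxycycline-inducible IκBα–green luciferase fusion and unfused red luciferase, in 0.5% FBS medium; compounds up to 46 uM, 4 h at 37C. Green/red luminescence ratio, filter-overlap corrected, fitted to concentration-response curves.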

[1] abbreviates: measured here: CBR red luminescence, cell number.

For the compound `O=C(Nc1nnc(-c2ccco2)o1)c1ccc(Cl)cc1`, the AC50 – broadly, the concentration at which the activity in the assay is half-maximal – under setting [1] is 10 µM [falling, partial curve]. The same measure, in the same setting: the value for `O=[N+]([O-])c1cccc(S(=O)(=O)N2CCCC2)c1` was 0.82 µM [rising, full curve, poor fit]; that for `Cc1ccc(NCC(=O)N/N=C\c2ccc[nH]2)cc1` was 0.112 µM [rising, full curve, poor fit]; that for `Cc1nn(Cc2ccc(Cl)cc2)c(C)c1NC(=O)CCCn1nc([N+](=O)[O-])c(Cl)c1C` was 29.1 µM [falling, single point]. Consider `CCn1cc(C(=O)NCc2ccco2)c(=O)c2cc(S(=O)(=O)N3CCCCCC3)ccc21`, for which, under setting [1], the AC50 was 8.91 µM [falling, partial curve]. As for `O=C(O)c1cc(N/N=C/c2ccc3c(c2)OCCO3)ccc1Cl`, the AC50 under setting [1] was 0.651 µM [falling, full curve]. The same measure, in the same setting: the value for `O=C1SCC(c2ccccc2)=NN1Cc1ccccc1` was 18.4 µM [rising, partial curve]; that for `COc1ccc(OCCC(=O)OCC(=O)NC(=O)NC(C)C)cc1` was 29.1 µM [rising, single point]; that for `CC(C)(C)NC(=O)NC(=O)CSc1ncc(C(F)(F)F)cc1Cl` was 0.651 µM [rising, full curve, poor fit]. Still for that read-out and setting: the value for `CC(C)C[C@@H]1CN=C(N)N1C[C@@H]1CCCN1C[C@@H](C(C)C)N1C[C@@H](Cc2ccccc2)N(CCCC2CCCC2)C1=N` was 5.8 µM [rising, partial curve, poor fit]; that for `O=C(O)CCC(=O)c1ccc2c(c1)OCCCO2` was 6.31 µM [falling, full curve].

With `O=C(CCC1CCCCC1)NNC(=O)NC12CC3CC(CC(C3)C1)C2`, the AC50 under setting [1] was 20.6 µM [falling, single point]. Turning to `C=CC[C@@H](Cc1ccc(F)cc1)C(=O)OC[C@H]1CCCN1C(=O)[C@H](CC=C)CC(=O)N(CCO)Cc1ccccc1`, under setting [1], the AC50 is 29.1 µM [falling, single point]. The same measure, in the same setting: the value for `Cc1cccc(N=C/C(C(=O)C(F)(F)F)=C(\O)c2ccco2)c1` was 1.16 µM [falling, partial curve, poor fit]; that for `O=C(NCCCc1ccccc1)Nc1ccccc1` was 20.6 µM [falling, single point]. Regarding `CC(=O)Oc1ccc(C(=O)Nc2ccc3c(c2)OCCO3)cc1`, the concentration at half-maximal activity (AC50) under setting [1] was 3.98 µM [falling, partial curve]. Turning to `C[C@H](CO)N1C[C@H](C)[C@@H](CN(C)CC2CCCCC2)Oc2c(NC(=O)C3CC3)cccc2C1=O`, the AC50 under setting [1] is 32.6 µM [falling, single point]. For the compound `COc1cccc(-c2nn(C)c3sc(C(=O)NCc4ccc(C)o4)cc23)c1`, the AC50 was 3.26 µM [falling, partial curve] under setting [1] and 2.06 µM [rising, partial curve, poor fit] (measured here: IkBa-CBG green luminescence).
